Source: paper PMC7822942
No constants are given. Whether binding was seen depends on the method and setting. In cells and extracts the contact can be indirect.

Chains of the proteins cited; added tags and fusions are not shown. Residues count along the entry.
UniProt Q6VNS1, residues 32-825: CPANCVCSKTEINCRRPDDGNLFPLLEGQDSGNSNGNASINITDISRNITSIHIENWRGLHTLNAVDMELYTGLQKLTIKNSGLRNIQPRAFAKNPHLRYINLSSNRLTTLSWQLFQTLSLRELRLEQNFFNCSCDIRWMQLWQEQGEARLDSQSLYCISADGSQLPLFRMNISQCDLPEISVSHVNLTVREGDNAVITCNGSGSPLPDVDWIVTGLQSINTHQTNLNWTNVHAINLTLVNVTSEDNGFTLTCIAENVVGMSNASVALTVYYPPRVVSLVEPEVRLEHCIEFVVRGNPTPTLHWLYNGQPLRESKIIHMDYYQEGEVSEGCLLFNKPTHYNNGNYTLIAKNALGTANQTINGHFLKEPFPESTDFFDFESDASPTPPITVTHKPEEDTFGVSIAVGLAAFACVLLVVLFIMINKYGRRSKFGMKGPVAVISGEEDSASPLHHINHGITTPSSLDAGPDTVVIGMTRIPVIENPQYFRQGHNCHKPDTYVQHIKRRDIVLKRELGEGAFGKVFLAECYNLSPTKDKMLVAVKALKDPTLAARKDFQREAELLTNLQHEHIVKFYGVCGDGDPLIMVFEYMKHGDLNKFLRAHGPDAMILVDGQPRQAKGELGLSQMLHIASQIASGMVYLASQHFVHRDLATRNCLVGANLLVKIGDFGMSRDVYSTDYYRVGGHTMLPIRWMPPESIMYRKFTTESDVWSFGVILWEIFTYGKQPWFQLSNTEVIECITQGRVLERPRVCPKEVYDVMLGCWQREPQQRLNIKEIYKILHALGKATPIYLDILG

Target: T1, GABAA receptor γ2 subunit (mouse (endogenous in brain of gephyrin floxed mice)) (UniProt P22723)
T1 sequence: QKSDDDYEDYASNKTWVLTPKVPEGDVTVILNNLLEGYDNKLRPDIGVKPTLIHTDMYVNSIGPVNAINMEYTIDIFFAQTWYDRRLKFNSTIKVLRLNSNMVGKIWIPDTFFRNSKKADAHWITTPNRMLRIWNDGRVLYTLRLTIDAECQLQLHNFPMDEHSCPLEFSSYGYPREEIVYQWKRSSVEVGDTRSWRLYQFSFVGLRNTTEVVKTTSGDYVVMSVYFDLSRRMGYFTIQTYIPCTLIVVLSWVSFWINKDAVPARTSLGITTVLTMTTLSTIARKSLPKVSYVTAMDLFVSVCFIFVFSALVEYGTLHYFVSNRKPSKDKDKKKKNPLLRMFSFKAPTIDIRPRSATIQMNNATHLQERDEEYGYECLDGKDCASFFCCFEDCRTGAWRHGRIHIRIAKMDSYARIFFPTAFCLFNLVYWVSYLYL
Test: co-IP; synaptosomal fractions of adult brains of gephyrin floxed mice injected with the indicated AAVs; immunoprecipitated with anti-GABAARγ2 antibodies, rabbit IgG as negative control; immunoblot

TrkC (from UniProt Q6VNS1 32-825) (receptor)
binding: no binding
